Further values from the same series stand in other lists.
Test system: wildtype (WT) human fibroblast cell lines
Assay: Transcriptome-wide splicing by RNA sequencing (RNASeq), exon triplet PSI change;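 as to Effect: six WT fibroblast lines treated seven days versus DMSO vehicle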;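 as to T-PSI: T-PSI is average treated PSI after seven days of treatment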
Format: cell-based
Parameters: key to Effect: Exclusion; Inclusion; Unchanged
Text: FIG. 2A provides a representation of an exon triplet. Exon U is upstream of Exon X, which is upstream of Exon D. R1, R2 and R3 represent RNA sequencing (RNASeq) reads spanning the regions between two adjacent exons. UI1, I1X, XI2 and I2D are four regions flanking the four splice sites of the exon-triplet. Each flanking region consists of 25 exonic base pairs and 75 intronic base pairs.
FIG. 2B provides a volcano plot showing the ψ (PSI: Percent Spliced-In) changes in splicing after treatment with Compound (I). Each dot represents one of the 161,097 expressed exon triplets in human fibroblasts. The x axis represents the ψ changes after treatment and the y axis represents the False Discovery Rate (FDR) (log 10 transformed). […] The horizontal dashed line indicates an FDR of 0.1. The dots on the right side of the right vertical dashed line and above the horizontal dashed line represent the exon-triplets with an increase for Exon X inclusion (Δψ≥0.1 and FDR<0.1) while the dots on left side of the left vertical dashed line and above the horizontal dashed line represent an increase for Exon X exclusion (Δψ≤−0.1 and FDR<0.1). Black dots in-between the two vertical dashed lines represent exon-triplets unchanged from the treatment.
In some aspects, analysis is performed on data derived from the assay to measure the magnitude of splicing to determine the amount of exons spliced into an mRNA transcript that is produced in the presence of Compound (I) relative to the amount in the absence of Compound (I) or presence of a negative control. In a preferred aspect, the method utilized is calculation of change in Percent Spliced In (ΔPSI). […] The ΔPSI value is derived from the formula: […]
The values for “a” and “b” represent the number of reads supporting the probability for potential inclusion or exclusion of an exon in an RNA transcript. The “a” value is derived from the number of reads within an exon triplet covering, in 5′ to 3′ order: the last few bases (>1 nucleotide) of an upstream exon operably linked to the first few bases (>1 nucleotide) of a middle exon. The “b” value is derived from the number of reads within an exon triplet covering, in 5′ to 3′ order: the last few bases (>1 nucleotide) of the middle exon operably linked to the first few bases (>1 nucleotide) of a downstream exon. The number of reads will indicate whether the splice junction of a middle exon has been identified as potentially having a CNN Motif(s) by the CNN Model described herein, wherein the inclusion or exclusion of the middle exon may be modulated in the presence of Compound (I) to produce one or more mature RNA isoforms from the gene transcript. The value for “c” represents the number of reads supporting the exclusion of the middle exon.
The effect on splicing modulation and corresponding splice differences toward exon inclusion or exclusion was determined by counting the RNASeq reads covering two splice junctions of exon triplets (three consecutive exons: Exon U, Exon X, Exon D) and the corresponding intervening introns, then comparing the change in Percent Spliced In (ΔPSI or Δψ) of the middle exon (Exon X) after treatment (as shown in FIG. 2A)^52,53. 934 exon triplets were identified showing differential middle exon inclusion or exclusion in response to Compound (I) treatment. Of these, 254 were exon inclusion events (Δψ≥0.1 and FDR<0.1) and 680 were exon exclusion events (Δψ≤−0.1 and FDR<0.1) (as shown in FIG. 2B). […] The splicing results were evaluated by RT-PCR in independent replicate experiments, confirming all the calculated Δψ values. […]

[1] = DNAJC2 Exon 102967779-102967825
[2] = DNAJC19 Exon 180704731-180704810
[3] = DNAJC19 Exon 180704786-180704810
[4] = DNM1L Exon 32891198-32891230, Intron1 32890096-32891197
[5] = DNM1L Exon 32891198-32891230, Intron1 32890877-32891197
[6] = DPH7 Exon 140471922-140472055, Intron1 140470620-140471921
[7] = DPH7 Exon 140471922-140472055, Intron1 140470855-140471921
[8] = DRAM2 Exon 1116822lO-ll 1682333
[9] = DYNC2H1 Exon 103029406-103029538
[10] = EBPL Exon 50243913-50243982, Intron1 50235345-50243912
[11] = EBPL Exon 50243913-50243982, Intron1 50237332-50243912

In the case of `Clc1nc(NCc2ccncc2)c2cc[nH]c2n1` [Compound (I), 2-chloro-N-(pyridin-4-ylmethyl)-7H-pyrrolo[2,3-d]pyrimidin-4-amine], the ΔPSI (DMD Exon 31196049-31196087) is reported as −0.409, the Effect (DMKN Exon 35991280-35991321) is reported as “Unc” and the T-PSI (DMKN Exon 35991280-35991321) is reported as 0.230. The ΔPSI (DMKN Exon 35991280-35991321) was 0.006, the Effect (DMTF1 Exon 86783706-86783844) was “Exc” and the T-PSI (DMTF1 Exon 86783706-86783844) was 0.076. For the same molecule, the ΔPSI (DMTF1 Exon 86783706-86783844) was −0.144, the Effect (DMTF1 Exon 86792555-86792648) was “Exc” and the T-PSI (DMTF1 Exon 86792555-86792648) was 0.098. The ΔPSI (DMTF1 Exon 86792555-86792648) was −0.157, the Effect (DMTF1 Exon 86824000-86824144) was “Exc” and the T-PSI (DMTF1 Exon 86824000-86824144) was 0.779. The ΔPSI (DMTF1 Exon 86824000-86824144) was −0.165, the Effect (DMWD Exon 46287899-46287973) was “Unc” and the T-PSI (DMWD Exon 46287899-46287973) was 0.642. The ΔPSI (DMWD Exon 46287899-46287973) was −0.006, the Effect (DNAAF2 Exon 50094730-50094873) was “Unc” and the T-PSI (DNAAF2 Exon 50094730-50094873) was 0.673. For the same molecule, the ΔPSI (DNAAF2 Exon 50094730-50094873) was −0.007, the Effect [1] was “Exc” and the T-PSI [1] was 0.051. For the same molecule, the ΔPSI [1] was −0.102, the Effect (DNAJC14 Exon 56223273-56223420) was “Unc” and the T-PSI (DNAJC14 Exon 56223273-56223420) was 0.767. The ΔPSI (DNAJC14 Exon 56223273-56223420) was 0.003, the Effect [2] was “Inc” and the T-PSI [2] was 0.910. The ΔPSI [2] was 0.102, the Effect [3] was “Inc” and the T-PSI [3] was 0.811. The ΔPSI [3] was 0.135, the Effect (DNAJC24 Exon 31436358-31436496) was “Unc” and the T-PSI (DNAJC24 Exon 31436358-31436496) was 0.896. The ΔPSI (DNAJC24 Exon 31436358-31436496) was −0.008, the Effect (DNM1L Exon 32890799-32890876) was “Inc” and the T-PSI (DNM1L Exon 32890799-32890876) was 0.788. The ΔPSI (DNM1L Exon 32890799-32890876) was 0.243, the Effect [4] was “Exc” and the T-PSI [4] was 0.050. For the same molecule, the ΔPSI [4] was −0.221, the Effect [5] was “Exc” and the T-PSI [5] was 0.180. The ΔPSI [5] was −0.366, the Effect (DNMT1 Exon 10290863-10290910) was “Exc” and the T-PSI (DNMT1 Exon 10290863-10290910) was 0.138. The ΔPSI (DNMT1 Exon 10290863-10290910) was −0.141, the Effect (DOCK5 Exon 25246325-25246457) was “Inc” and the T-PSI (DOCK5 Exon 25246325-25246457) was 0.336. For the same molecule, the ΔPSI (DOCK5 Exon 25246325-25246457) was 0.251, the Effect (DOCK7 Exon 62953069-62953083) was “Exc” and the T-PSI (DOCK7 Exon 62953069-62953083) was 0.691. For the same molecule, the ΔPSI (DOCK7 Exon 62953069-62953083) was −0.221, the Effect (DPH3 Exon 16305662-16305736) was “Inc” and the T-PSI (DPH3 Exon 16305662-16305736) was 0.757. For the same molecule, the ΔPSI (DPH3 Exon 16305662-16305736) was 0.247, the Effect [6] was “Unc” and the T-PSI [6] was 0.718. For the same molecule, the ΔPSI [6] was −0.006, the Effect [7] was “Unc” and the T-PSI [7] was 0.850. The ΔPSI [7] was −0.004, the Effect (DPM1 Exon 49557402-49557492) was “Unc” and the T-PSI (DPM1 Exon 49557402-49557492) was 0.893. For the same molecule, the ΔPSI (DPM1 Exon 49557402-49557492) was −0.001, the Effect (DPY19L4 Exon 95738559-95738669) was “Exc” and the T-PSI (DPY19L4 Exon 95738559-95738669) was 0.874. For the same molecule, the ΔPSI (DPY19L4 Exon 95738559-95738669) was −0.101, the Effect [8] was “Inc” and the T-PSI [8] was 0.668. The ΔPSI [8] was 0.202, the Effect (DRAM2 Exon 111667364-111667503) was “Exc” and the T-PSI (DRAM2 Exon 111667364-111667503) was 0.755. For the same molecule, the ΔPSI (DRAM2 Exon 111667364-111667503) was −0.169, the Effect (DSCR3 Exon 38605663-38605743) was “Exc” and the T-PSI (DSCR3 Exon 38605663-38605743) was 0.634. The ΔPSI (DSCR3 Exon 38605663-38605743) was −0.288, the Effect (DTNBP1 Exon 15651544-15651594) was “Exc” and the T-PSI (DTNBP1 Exon 15651544-15651594) was 0.855. For the same molecule, the ΔPSI (DTNBP1 Exon 15651544-15651594) was −0.108, the Effect (DTNBP1 Exon 15651544-15651639) was “Exc” and the T-PSI (DTNBP1 Exon 15651544-15651639) was 0.751. The ΔPSI (DTNBP1 Exon 15651544-15651639) was −0.176, the Effect (DUS2 Exon 68059318-68059397) was “Unc” and the T-PSI (DUS2 Exon 68059318-68059397) was 0.860. For the same molecule, the ΔPSI (DUS2 Exon 68059318-68059397) was −0.009, the Effect (DUSP11 Exon 73994288-73994334) was “Exc” and the T-PSI (DUSP11 Exon 73994288-73994334) was 0.659. The ΔPSI (DUSP11 Exon 73994288-73994334) was −0.322, the Effect (DUSP22 Exon 335114-335163) was “Exc” and the T-PSI (DUSP22 Exon 335114-335163) was 0.479. For the same molecule, the ΔPSI (DUSP22 Exon 335114-335163) was −0.250, the Effect [9] was “Exc” and the T-PSI [9] was 0.828. For the same molecule, the ΔPSI [9] was −0.160, the Effect [10] was “Exc” and the T-PSI [10] was 0.441. The ΔPSI [10] was −0.302, the Effect [11] was “Exc” and the T-PSI [11] was 0.680. The ΔPSI [11] was −0.181, the Effect (ECHDC2 Exon 53370706-53370762) was “Unc” and the T-PSI (ECHDC2 Exon 53370706-53370762) was 0.882. The ΔPSI (ECHDC2 Exon 53370706-53370762) was −0.007, the Effect (EDC3 Exon 74979432-74979520) was “Exc” and the T-PSI (EDC3 Exon 74979432-74979520) was 0.069. For the same molecule, the ΔPSI (EDC3 Exon 74979432-74979520) was −0.112, the Effect (EDEM2 Exon 33721908-33721958) was “Inc” and the T-PSI (EDEM2 Exon 33721908-33721958) was 0.409. For the same molecule, the ΔPSI (EDEM2 Exon 33721908-33721958) was 0.276, the Effect (EDRF1 Exon 127417572-127417673) was “Exc” and the T-PSI (EDRF1 Exon 127417572-127417673) was 0.348. The ΔPSI (EDRF1 Exon 127417572-127417673) was −0.365, the Effect (EFEMP1 Exon 56150034-56150074) was “Inc” and the T-PSI (EFEMP1 Exon 56150034-56150074) was 0.447. The ΔPSI (EFEMP1 Exon 56150034-56150074) was 0.125 and the Effect (EHBP1 Exon 63215066-63215173) was “Exc”.

Source: patent US20230047208A1, “RNA Splicing Modulation” (The General Hospital Corporation, priority 2020, published 2023)
